Results as given in the supplement of paper PMC11006884.
What follows is the remainder of the data, with few or none of the targets with a hit. This is a noisy data set. Only a part is listed here, and it is no random draw.

By UniProt entry, the sequences of proteins in these tests, tags left out. Where a name states a change or a piece, a line headed by the entry shows the natural chain unless it says otherwise.
UniProt O15371, whole entry, looked up: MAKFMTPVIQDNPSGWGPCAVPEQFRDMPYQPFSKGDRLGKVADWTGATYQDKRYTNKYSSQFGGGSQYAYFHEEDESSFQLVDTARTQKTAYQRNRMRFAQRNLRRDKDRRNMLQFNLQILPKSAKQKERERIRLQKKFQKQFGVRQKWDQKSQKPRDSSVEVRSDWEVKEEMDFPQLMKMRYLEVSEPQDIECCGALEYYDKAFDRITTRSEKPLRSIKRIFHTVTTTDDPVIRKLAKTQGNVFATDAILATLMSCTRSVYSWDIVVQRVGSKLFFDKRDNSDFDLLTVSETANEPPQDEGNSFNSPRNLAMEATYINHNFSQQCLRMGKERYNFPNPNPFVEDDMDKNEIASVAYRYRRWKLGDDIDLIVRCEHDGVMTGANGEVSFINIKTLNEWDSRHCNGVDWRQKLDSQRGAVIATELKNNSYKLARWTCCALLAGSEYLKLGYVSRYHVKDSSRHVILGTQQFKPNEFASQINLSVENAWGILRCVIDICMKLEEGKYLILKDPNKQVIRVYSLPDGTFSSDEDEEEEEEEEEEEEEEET
UniProt O15446, whole entry, looked up: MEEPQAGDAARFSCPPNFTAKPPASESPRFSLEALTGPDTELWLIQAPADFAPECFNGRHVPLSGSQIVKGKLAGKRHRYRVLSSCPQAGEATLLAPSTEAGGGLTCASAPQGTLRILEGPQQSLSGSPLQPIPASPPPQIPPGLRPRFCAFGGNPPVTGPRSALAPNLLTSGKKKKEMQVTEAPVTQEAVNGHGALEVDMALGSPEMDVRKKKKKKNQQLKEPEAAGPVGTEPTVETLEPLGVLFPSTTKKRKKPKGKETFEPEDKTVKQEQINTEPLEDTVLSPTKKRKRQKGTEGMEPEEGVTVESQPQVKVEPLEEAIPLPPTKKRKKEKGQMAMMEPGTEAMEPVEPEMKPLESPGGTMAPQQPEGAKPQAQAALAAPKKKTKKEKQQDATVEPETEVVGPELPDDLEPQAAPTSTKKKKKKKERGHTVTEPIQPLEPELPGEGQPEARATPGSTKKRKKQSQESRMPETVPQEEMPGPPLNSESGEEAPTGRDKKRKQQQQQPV
UniProt O00459, whole entry: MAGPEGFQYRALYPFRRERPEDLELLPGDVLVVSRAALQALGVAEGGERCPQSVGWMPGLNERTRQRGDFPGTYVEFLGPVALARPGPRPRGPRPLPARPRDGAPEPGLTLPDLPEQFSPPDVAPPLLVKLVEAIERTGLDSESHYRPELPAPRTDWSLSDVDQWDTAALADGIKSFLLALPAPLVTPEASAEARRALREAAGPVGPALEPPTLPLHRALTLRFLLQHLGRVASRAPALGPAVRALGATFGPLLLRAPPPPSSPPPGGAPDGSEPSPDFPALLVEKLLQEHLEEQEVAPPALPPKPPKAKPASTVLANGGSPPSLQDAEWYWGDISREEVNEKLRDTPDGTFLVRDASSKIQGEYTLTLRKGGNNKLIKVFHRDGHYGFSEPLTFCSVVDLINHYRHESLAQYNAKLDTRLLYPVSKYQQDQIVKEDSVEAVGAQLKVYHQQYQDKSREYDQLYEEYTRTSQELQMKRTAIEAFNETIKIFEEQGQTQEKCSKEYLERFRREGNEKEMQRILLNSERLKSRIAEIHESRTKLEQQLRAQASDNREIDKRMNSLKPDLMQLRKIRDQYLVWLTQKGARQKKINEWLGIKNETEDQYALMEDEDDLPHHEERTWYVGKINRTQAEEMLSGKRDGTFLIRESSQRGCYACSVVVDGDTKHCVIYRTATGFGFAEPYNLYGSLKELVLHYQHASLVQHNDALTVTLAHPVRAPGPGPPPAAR
UniProt O43149: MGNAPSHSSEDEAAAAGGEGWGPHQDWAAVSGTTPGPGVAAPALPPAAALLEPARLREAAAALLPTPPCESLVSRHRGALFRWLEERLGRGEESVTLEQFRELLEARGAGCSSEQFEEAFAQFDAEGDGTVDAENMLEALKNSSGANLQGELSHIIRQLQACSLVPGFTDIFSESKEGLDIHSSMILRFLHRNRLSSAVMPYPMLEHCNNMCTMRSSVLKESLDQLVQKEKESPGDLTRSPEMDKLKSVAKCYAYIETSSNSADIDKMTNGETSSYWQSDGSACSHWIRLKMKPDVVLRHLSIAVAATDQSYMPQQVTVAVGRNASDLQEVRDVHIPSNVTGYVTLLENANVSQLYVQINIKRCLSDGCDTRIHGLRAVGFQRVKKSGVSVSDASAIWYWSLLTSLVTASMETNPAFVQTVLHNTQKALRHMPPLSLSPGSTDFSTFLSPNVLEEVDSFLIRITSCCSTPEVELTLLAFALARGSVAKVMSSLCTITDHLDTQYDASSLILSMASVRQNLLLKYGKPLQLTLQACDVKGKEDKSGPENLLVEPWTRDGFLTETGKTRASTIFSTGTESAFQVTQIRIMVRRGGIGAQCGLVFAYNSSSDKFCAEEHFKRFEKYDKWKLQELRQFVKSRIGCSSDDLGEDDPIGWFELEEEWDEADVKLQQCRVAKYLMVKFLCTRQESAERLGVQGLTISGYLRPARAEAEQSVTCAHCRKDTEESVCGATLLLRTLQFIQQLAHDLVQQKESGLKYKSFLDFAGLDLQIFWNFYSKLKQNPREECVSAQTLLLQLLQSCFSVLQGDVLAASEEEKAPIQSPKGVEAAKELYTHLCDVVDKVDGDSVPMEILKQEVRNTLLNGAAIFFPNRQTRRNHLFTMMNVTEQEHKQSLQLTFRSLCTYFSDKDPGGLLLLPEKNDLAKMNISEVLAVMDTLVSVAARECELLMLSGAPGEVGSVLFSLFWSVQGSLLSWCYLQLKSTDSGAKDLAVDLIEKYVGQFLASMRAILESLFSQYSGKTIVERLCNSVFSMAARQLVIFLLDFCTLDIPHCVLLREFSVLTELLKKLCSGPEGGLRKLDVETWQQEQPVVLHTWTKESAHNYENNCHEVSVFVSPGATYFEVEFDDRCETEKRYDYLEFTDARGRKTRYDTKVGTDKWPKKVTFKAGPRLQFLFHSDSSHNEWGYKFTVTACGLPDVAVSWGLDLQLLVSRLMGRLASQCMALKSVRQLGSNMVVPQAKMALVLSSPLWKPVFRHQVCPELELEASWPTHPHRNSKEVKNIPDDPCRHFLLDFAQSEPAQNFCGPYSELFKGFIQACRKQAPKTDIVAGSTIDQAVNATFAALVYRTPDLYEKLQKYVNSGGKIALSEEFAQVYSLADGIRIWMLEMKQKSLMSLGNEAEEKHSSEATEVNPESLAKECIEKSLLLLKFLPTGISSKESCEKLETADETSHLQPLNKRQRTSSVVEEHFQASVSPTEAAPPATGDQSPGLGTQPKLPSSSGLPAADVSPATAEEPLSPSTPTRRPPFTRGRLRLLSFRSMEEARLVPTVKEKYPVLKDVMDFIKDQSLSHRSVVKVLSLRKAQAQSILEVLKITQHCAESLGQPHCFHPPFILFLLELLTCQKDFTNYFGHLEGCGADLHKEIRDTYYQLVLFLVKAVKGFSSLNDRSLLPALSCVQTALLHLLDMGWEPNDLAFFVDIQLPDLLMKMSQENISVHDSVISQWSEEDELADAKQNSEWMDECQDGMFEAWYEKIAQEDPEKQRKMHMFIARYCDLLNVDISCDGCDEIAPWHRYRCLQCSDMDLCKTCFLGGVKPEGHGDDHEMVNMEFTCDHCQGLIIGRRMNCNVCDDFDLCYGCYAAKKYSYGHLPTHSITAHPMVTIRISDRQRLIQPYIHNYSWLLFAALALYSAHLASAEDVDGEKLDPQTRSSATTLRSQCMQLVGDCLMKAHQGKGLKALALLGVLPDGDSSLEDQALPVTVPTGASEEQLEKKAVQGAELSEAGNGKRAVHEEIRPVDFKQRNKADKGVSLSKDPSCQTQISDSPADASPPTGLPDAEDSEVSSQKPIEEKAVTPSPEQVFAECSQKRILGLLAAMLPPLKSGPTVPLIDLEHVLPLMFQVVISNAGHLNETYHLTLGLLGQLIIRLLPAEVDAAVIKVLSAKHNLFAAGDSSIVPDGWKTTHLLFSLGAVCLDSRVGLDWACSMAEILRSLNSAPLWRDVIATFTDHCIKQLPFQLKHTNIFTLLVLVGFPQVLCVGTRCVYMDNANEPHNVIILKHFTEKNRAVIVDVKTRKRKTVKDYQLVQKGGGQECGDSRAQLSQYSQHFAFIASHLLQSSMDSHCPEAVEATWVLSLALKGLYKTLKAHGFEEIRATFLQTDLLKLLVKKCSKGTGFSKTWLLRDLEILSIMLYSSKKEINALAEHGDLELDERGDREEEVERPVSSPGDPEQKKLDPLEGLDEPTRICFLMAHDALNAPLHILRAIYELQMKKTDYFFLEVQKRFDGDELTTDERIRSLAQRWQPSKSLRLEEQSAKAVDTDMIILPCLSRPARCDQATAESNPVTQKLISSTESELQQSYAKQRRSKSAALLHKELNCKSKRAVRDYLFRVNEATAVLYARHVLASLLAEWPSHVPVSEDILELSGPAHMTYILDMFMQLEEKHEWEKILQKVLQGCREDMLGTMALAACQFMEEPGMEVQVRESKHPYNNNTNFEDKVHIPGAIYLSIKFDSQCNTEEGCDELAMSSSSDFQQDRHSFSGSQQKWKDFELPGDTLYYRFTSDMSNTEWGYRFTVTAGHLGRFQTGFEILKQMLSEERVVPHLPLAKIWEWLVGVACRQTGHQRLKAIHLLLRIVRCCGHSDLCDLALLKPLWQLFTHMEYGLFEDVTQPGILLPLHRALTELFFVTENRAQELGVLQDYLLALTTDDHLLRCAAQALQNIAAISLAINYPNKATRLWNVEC
UniProt O14628: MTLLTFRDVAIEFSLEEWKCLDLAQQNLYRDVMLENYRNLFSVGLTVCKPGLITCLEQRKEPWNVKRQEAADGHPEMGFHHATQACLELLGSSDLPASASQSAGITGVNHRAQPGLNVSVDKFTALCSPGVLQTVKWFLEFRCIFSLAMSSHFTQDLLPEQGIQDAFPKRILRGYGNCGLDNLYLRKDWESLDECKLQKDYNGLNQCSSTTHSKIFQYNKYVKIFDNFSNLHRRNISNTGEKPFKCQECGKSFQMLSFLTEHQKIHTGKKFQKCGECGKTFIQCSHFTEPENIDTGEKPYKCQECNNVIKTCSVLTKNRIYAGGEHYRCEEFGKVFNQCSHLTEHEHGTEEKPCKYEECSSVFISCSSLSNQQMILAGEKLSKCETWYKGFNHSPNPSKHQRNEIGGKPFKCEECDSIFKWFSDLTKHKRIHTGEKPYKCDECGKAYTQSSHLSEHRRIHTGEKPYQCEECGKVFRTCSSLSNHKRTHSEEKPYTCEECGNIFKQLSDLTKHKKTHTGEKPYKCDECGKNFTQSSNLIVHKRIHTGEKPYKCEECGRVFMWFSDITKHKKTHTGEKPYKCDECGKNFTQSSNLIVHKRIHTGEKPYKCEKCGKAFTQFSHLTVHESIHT
UniProt O14893: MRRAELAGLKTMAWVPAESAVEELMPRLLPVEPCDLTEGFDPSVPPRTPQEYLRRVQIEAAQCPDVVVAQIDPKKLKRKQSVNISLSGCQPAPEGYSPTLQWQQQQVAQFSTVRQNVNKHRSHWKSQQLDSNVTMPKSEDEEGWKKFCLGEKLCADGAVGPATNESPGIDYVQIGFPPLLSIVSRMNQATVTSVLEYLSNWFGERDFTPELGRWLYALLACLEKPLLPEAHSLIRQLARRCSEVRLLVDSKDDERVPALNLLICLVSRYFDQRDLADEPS
UniProt O00273: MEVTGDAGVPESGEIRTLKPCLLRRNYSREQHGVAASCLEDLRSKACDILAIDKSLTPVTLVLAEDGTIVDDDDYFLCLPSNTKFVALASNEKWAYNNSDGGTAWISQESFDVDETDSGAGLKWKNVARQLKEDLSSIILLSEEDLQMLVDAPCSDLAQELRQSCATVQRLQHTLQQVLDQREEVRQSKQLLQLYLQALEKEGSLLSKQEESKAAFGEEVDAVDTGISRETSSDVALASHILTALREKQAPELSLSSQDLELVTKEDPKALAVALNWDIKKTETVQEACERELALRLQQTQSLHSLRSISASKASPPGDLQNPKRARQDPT
UniProt O00487, whole entry, looked up: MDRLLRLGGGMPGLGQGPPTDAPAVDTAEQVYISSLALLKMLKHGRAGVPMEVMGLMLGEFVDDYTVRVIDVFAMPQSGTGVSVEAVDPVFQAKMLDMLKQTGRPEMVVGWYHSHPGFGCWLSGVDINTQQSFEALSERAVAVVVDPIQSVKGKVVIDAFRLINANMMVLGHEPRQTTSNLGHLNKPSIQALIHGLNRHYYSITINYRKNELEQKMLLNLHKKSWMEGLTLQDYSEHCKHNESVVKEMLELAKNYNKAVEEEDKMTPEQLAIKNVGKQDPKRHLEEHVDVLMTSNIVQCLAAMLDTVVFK

Compound: COC(=O)/C=C/c1ccccc1 [methyl cinnamate]
Test: log2 ratio of iodoacetamide-alkyne labeling of the cysteine site, DMSO over compound (competition); higher = stronger covalent engagement of the cysteine by the compound, active = 1 or more
Conditions: 500 µM; treatment time 1 h; system: HEK293T cell lysate
Method in brief: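 Electrophile (500 µM) or vehicle was added to HEK293T lysate (2 mg/mL) for 1 h at ambient temperature before iodoacetamide alkyne labelling (1 h) and click coupling to sCIP-TMT reagents. After pooling, overnight trypsin digestion at 37 °C, streptavidin enrichment and acid elution, peptides were measured by Orbitrap Eclipse LC-MS/MS with FAIMS and quantified in FragPipe. Each cysteine's log2 competition ratio compares mean control-channel with mean compound-channel reporter intensity, control over compound. Data came from duplicate channels across three replicates, excluding cysteines quantified in only one replicate.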

log2 ratio of iodoacetamide-alkyne labeling, inactive:
EXOC5 C517 (UniProt O00471) 0.297, KIF2A C406 (UniProt O00139) 0.0558, EIF3D C196 (UniProt O15371) 0.0311, CLIC1 C191 (UniProt O00299) 0.105, PHGDH C116 (UniProt O43175) -0.0364, CD3EAP C55 (UniProt O15446) 0.933, PDLIM1 C307 (UniProt O00151) 0.0299, PIK3R2 C396 (UniProt O00459) -0.0204, EIF3D C19 (UniProt O15371) 0.00387, ZZEF1 C2037 (UniProt O43149) 0.12, DHX15 C174 (UniProt O43143) -0.12, UniProt O14979_C303 0.0198, ZZEF1 C162 (UniProt O43149) 0.225, TNFRSF10B C341 (UniProt O14763) -0.00341, KMT2D C392 (UniProt O14686) 0.0592, POLR3A C883 (UniProt O14802) 0.222, PSMD12 C255 (UniProt O00232) -0.167, UniProt O14628_C178 0.16, EIF3D C258 (UniProt O15371) -0.112, CD3EAP C86 (UniProt O15446) -0.00342, NKRF C246 (UniProt O15226) 0.255, GEMIN2 C89 (UniProt O14893) 0.313, UniProt A6NJ78_C172 0.146, TRAFD1 C482 (UniProt O14545) 0.66, DFFA C38 (UniProt O00273) 0.126, UniProt O00487_C238 0.105, POLRMT C413 (UniProt O00411) 0.593, AP3D1 C1133 (UniProt O14617) 0.249, ZZEF1 C1259 (UniProt O43149) 0.433, POLRMT C535 (UniProt O00411) -0.131, AP3D1 C137 (UniProt O14617) 0.0312, SPTLC1 C100 (UniProt O15269) -0.0803, DVL2 C354 (UniProt O14641) 0.541, IRS4 C658 (UniProt O14654) 0.321, UniProt O00442_C100 0.234, DYNC1LI2 C104 (UniProt O43237) 0.249, HAT1 C376 (UniProt O14929) 0.0113, SMCHD1 C897 (UniProt A6NHR9) 0.368
